The other results are listed elsewhere or left out. Residues, ends and D or L forms follow the SMILES beside them. *: point of attachment. Cbz = O=C(OCc1ccccc1)*
Tests used:
Assay in all cases: log2 fold change, soluble protein after heating vs DMSO (PISA); higher = thermal stabilisation; K562 cells, 10 uM, 30 min; active = over 0.2 and 3.5 SD of the protein, either way, in both replicates (recomputed)
[1] = compound: C1COCCN1CCN2C3=CC=CC=C3N=C2NC(=O)C4=CC(=CC=C4)[N+](=O)[O-] [IRAK-1-4 Inhibitor I]
Summary of the method: (§1)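 K562 cells at 2×10^6 cells/mL were treated for 30 min with 10 μM compound, and aliquots were heated for 3 min over 48°C-58°C before pooling. Extraction used PBS with 0.5% NP-40 at 4°C, and soluble protein was the supernatant after 21,000xg for 90 min, measured by TMTpro 16plex LC-MS/MS with channel sums equalised. Thermal stability values, relative to control samples and from duplicates, are log2 fold changes.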

Sequences of proteins named here, by UniProt entry; tags and fusion partners are left off. A change or cut given only in a name is not applied to a line headed by its entry.
UniProt Q9NP59: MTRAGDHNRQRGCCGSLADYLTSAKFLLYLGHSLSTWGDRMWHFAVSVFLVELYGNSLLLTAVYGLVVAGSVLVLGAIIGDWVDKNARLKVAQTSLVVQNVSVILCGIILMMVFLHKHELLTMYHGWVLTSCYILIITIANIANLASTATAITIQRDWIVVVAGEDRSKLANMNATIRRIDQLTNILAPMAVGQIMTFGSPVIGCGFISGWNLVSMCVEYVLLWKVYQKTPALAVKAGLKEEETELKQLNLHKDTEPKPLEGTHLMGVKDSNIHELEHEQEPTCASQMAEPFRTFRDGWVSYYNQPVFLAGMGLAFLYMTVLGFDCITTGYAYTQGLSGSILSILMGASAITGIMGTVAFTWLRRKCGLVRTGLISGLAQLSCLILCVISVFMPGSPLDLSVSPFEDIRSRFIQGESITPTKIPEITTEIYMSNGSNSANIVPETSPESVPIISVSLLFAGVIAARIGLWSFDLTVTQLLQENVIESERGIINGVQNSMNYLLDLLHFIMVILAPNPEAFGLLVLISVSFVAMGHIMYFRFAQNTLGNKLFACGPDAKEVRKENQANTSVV
UniProt Q9NYZ2: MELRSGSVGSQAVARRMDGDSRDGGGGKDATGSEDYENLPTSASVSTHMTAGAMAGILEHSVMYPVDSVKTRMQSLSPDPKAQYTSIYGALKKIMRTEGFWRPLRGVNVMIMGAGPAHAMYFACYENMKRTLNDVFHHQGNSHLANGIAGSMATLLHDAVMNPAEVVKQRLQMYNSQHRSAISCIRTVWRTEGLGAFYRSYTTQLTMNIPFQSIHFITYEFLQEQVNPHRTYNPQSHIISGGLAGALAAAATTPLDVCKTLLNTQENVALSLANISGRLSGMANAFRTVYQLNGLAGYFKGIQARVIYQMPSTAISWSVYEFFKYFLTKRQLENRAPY
UniProt Q9UPY5: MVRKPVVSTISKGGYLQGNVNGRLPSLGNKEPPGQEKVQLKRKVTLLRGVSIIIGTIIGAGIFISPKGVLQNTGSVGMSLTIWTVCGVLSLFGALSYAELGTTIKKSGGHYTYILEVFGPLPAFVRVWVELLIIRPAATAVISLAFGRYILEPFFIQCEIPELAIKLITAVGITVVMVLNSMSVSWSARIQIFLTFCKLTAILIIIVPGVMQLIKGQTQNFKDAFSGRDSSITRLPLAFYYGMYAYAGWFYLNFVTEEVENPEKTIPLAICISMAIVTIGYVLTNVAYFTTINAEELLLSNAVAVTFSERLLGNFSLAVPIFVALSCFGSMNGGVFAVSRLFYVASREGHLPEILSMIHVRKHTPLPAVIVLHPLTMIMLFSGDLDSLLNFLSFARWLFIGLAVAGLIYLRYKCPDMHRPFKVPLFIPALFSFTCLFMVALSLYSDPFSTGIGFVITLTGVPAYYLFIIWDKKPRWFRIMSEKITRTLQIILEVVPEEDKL
UniProt Q8WUX1, whole entry, looked up: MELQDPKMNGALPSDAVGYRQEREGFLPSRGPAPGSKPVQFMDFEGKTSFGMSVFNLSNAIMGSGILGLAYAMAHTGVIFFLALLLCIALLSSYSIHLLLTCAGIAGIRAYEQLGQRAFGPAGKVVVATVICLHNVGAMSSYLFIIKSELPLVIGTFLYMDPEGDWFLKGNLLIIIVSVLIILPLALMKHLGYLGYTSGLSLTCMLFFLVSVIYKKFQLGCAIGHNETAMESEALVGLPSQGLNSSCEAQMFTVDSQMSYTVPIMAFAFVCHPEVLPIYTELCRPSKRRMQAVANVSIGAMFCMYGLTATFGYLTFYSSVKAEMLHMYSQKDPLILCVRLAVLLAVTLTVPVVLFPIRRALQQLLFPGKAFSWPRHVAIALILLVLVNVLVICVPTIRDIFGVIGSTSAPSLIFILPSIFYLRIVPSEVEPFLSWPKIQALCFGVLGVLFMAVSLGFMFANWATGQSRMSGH
UniProt P78381: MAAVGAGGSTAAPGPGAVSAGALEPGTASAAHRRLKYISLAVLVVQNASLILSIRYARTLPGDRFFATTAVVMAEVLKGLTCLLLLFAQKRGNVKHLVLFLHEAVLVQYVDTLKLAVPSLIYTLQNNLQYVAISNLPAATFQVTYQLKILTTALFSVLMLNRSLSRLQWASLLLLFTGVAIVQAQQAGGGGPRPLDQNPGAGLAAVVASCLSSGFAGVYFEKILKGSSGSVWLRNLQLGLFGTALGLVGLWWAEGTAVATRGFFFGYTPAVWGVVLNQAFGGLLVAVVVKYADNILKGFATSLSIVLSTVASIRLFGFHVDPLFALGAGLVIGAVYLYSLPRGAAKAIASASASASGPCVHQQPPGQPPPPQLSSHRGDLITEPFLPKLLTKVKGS
UniProt Q8WV83: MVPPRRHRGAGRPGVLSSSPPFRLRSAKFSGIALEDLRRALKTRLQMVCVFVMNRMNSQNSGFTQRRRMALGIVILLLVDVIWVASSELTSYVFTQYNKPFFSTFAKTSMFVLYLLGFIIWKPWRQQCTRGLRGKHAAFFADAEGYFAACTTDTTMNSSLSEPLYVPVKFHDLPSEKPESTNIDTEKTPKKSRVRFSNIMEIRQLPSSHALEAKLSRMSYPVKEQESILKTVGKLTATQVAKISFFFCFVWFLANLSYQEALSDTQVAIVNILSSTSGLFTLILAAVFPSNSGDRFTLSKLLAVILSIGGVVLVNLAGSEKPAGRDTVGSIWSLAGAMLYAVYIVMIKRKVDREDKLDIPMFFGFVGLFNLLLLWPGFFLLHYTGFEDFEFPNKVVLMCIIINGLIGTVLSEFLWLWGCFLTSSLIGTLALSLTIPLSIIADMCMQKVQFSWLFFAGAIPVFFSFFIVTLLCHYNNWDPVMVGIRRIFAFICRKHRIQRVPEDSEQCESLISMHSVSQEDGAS
UniProt Q8N1S5: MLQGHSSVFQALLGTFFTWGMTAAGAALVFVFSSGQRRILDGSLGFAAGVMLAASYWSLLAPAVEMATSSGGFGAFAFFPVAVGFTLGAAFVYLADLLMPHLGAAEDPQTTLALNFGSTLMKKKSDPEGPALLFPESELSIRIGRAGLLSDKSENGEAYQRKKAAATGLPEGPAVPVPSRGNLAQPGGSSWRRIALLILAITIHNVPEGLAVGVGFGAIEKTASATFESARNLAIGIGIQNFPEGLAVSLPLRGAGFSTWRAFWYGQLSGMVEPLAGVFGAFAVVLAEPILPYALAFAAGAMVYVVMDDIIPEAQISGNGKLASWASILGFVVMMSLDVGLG
UniProt P12235: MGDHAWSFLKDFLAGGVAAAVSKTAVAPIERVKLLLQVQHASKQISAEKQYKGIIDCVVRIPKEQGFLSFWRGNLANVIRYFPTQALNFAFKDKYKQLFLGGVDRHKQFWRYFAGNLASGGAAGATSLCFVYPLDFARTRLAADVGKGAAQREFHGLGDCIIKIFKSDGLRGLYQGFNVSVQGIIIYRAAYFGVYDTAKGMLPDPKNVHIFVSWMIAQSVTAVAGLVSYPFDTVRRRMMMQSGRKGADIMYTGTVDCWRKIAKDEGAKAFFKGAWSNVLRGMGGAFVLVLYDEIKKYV
UniProt Q9BZD2: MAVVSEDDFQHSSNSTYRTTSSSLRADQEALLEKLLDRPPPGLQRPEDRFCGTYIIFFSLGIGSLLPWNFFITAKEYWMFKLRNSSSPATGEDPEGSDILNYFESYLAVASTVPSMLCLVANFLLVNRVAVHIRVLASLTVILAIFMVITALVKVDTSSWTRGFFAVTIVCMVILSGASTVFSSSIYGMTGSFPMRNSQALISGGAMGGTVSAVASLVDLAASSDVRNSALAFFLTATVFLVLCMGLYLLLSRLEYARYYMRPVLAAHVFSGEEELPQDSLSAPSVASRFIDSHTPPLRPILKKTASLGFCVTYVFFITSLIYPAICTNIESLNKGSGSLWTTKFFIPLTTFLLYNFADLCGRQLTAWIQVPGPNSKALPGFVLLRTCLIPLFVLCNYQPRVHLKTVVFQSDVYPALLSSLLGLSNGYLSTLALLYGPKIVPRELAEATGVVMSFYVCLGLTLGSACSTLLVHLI
UniProt Q96CQ1: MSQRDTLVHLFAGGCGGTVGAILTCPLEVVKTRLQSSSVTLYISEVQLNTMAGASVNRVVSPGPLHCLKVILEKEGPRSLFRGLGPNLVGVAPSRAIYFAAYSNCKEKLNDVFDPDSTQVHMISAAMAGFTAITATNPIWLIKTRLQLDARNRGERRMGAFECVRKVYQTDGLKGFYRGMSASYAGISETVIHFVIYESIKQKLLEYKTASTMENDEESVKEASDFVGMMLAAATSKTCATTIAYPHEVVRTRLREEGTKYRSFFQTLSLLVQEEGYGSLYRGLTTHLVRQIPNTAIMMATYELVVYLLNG
UniProt P31641: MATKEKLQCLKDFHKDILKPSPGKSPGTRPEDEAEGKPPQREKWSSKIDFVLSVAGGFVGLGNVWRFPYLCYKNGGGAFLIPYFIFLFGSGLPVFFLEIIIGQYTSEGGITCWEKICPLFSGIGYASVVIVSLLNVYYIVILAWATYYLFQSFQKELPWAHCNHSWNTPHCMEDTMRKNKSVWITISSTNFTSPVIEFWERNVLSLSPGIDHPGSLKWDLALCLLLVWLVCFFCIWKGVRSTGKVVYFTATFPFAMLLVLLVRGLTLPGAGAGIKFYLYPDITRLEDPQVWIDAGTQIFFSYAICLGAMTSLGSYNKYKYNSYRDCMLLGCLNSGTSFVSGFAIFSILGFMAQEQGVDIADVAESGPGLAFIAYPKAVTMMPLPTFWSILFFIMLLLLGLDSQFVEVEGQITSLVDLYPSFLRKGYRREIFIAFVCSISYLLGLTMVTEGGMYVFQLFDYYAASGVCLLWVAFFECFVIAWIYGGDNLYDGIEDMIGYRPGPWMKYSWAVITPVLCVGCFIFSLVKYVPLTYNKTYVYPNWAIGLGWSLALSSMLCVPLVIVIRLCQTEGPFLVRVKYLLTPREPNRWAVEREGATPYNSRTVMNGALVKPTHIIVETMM
UniProt Q9BRV3: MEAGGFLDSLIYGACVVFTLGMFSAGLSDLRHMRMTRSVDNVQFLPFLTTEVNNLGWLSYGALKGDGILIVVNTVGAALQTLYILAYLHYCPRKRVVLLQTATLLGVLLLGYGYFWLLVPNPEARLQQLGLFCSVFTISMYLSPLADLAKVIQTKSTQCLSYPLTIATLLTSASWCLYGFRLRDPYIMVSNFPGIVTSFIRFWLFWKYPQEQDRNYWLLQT
UniProt Q8NBW4: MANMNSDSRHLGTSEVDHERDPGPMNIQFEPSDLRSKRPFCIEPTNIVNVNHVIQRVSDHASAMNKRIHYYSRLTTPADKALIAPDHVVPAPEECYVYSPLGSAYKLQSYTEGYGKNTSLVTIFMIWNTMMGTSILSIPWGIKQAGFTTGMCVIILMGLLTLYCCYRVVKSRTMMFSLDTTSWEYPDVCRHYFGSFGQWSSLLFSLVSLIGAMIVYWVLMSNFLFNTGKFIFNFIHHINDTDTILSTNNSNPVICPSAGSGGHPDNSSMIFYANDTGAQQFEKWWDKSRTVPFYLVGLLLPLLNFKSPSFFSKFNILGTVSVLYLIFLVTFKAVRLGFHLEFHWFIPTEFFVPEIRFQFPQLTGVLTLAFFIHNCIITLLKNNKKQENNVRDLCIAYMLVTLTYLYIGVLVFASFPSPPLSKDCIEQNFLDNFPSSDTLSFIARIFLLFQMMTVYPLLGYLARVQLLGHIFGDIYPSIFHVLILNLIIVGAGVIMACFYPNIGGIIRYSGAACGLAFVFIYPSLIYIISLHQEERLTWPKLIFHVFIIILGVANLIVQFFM
UniProt O15431: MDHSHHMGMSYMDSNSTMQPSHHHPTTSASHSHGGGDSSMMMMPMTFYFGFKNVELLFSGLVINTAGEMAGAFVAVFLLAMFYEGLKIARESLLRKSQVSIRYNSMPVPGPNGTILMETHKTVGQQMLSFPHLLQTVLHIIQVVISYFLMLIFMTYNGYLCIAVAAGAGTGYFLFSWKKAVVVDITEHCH
UniProt O14975, whole entry, looked up: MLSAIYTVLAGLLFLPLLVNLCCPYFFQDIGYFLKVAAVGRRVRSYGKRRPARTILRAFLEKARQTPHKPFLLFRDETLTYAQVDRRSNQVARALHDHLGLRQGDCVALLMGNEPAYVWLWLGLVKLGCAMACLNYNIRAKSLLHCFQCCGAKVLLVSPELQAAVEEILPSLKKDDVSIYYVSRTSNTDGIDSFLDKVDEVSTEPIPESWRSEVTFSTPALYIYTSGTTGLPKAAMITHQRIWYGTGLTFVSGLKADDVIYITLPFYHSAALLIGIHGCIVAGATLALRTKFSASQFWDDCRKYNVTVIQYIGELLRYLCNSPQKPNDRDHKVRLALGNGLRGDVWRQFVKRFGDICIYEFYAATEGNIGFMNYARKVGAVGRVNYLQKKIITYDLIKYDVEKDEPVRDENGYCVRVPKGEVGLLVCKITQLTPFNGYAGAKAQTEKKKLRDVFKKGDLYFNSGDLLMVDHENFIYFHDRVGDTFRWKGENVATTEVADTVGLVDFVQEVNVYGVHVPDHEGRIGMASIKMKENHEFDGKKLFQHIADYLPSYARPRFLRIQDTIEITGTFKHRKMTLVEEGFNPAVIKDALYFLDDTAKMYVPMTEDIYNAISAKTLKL

[2] = compound: C=CC(=O)N1CCC[C@@H](n2nc(-c3ccc(Oc4ccccc4)cc3)c3c(N)ncnc32)C1 [ibrutinib]
Summary of the method: as §1

[3] = compound: CC(=O)c1cnc2ccc(-c3cc(Cl)c(O)c(Cl)c3)nc2c1N[C@H]1CC[C@H](CN(C)C)CC1
Summary of the method: as §1

[4] = compound: CC(C)(C)Cn1c(N)nc2ccc(-c3[nH]c(C(C)(C)C)nc3-c3ccc(F)cc3)nc21 [ralimetinib]
Summary of the method: as §1

[5] = compound: CC(C)(O)CC(=O)NCCn1ccc2ncnc(Nc3ccc(Oc4cccc(C(F)(F)F)c4)c(Cl)c3)c21
Summary of the method: as §1

[6] = compound: CC(C)C1=C2N=C(C=C(N2N=C1)NCC3=CC=CC=C3)NCCCCCCN
Summary of the method: as §1

[7] = compound: CC(C)C[C@@H](C=O)NC(=O)[C@H](CC(C)C)NC(=O)[C@H](CC(C)C)NC(=O)OCc1ccccc1
Summary of the method: as §1

[8] = compound: CC(C)N(C[C@H]1O[C@@H](n2cnc3c(N)ncnc32)[C@H](O)[C@@H]1O)[C@H]1C[C@@H](CCc2nc3cc(C(C)(C)C)ccc3[nH]2)C1 [pinometostat]
Summary of the method: as §1

[9] = compound: CC1=C(C(CC(=O)N1)C2=CC=C(C=C2)C(F)(F)F)C(=O)NC3=C(C=C4C(=C3)C=NN4)F
Summary of the method: as §1

[10] = compound: CC1=C(C2=C(C=C1)C(=O)C3=CC=CC=C3N2CCCN)C
Summary of the method: as §1

| Target | log2 fold change [1] | log2 fold change [2] | log2 fold change [3] | log2 fold change [4] | log2 fold change [5] | log2 fold change [6] | log2 fold change [7] | log2 fold change [8] | log2 fold change [9] | log2 fold change [10] |
| --- | --- | --- | --- | --- | --- | --- | --- | --- | --- | --- |
| SLC40A1 (UniProt Q9NP59) | inactive: 0.025 | inactive: 0.187 | inactive: -0.174 | inactive: -0.24 | inactive: -0.101 | inactive: 0.087 | inactive: 0.24 | inactive: 0.006 | inactive: -0.173 | inactive: 0.054 |
| SLC45A4 isoform 3 (UniProt Q5BKX6) | inactive: 0.058 | inactive: 0.041 | inactive: 0.006 | inactive: 0.097 | inactive: 0.015 | inactive: -0.026 | inactive: 0.285 | inactive: -0.107 | inactive: -0.017 | inactive: 0.049 |
| SLC30A6 isoform 2 (UniProt Q6NXT4) | inactive: 0.029 | inactive: 0.045 | inactive: 0.043 | inactive: -0.022 | inactive: 0.061 | inactive: 0.182 | inactive: 0.061 | inactive: 0.04 | inactive: 0.027 | inactive: -0.036 |
| SLC25A37 (UniProt Q9NYZ2) | inactive: 0.006 | inactive: 0.21 | inactive: -0.001 | inactive: 0.036 | inactive: 0.035 | inactive: 0.07 | inactive: -0.029 | inactive: -0.001 | inactive: -0.002 | inactive: 0.036 |
| SLC7A11 (UniProt Q9UPY5) | inactive: 0.019 | inactive: 0.015 | inactive: -0.029 | inactive: -0.11 | inactive: -0.151 | inactive: 0.182 | inactive: 0.044 | inactive: -0.027 | inactive: -0.025 | inactive: 0.049 |
| SLC25A31 (UniProt Q9H0C2) | inactive: 0.023 | inactive: 0.04 | inactive: -0.001 | inactive: -0.021 | inactive: 0.012 | inactive: 0.056 | inactive: -0.061 | inactive: -0.095 | inactive: -0.001 | inactive: 0.018 |
| SLC25A24 (UniProt Q6NUK1) | inactive: 0.022 | inactive: 0.015 | inactive: 0.012 | inactive: -0.045 | inactive: 0.003 | inactive: 0.04 | inactive: 0.018 | inactive: -0.049 | inactive: -0.011 | inactive: -0.004 |
| SLC25A13 isoform 2 (UniProt Q9UJS0) | inactive: 0.032 | inactive: 0.009 | inactive: -0.012 | inactive: -0.056 | inactive: 0.004 | inactive: 0.034 | inactive: -0.003 | inactive: -0.027 | inactive: -0.009 | inactive: -0.014 |
| SLC38A5 (UniProt Q8WUX1) | inactive: -0.012 | inactive: 0.024 | inactive: -0.014 | inactive: -0.028 | inactive: -0.113 | inactive: 0.102 | inactive: -0.014 | inactive: -0.014 | inactive: 0.039 | inactive: 0.068 |
| SLC35A2 isoform 4 (UniProt P78381) | inactive: 0.064 | inactive: -0.035 | inactive: -0.254 | inactive: -0.154 | inactive: -0.161 | – | inactive: -0.07 | inactive: -0.065 | inactive: -0.007 | inactive: 0.041 |
| SLC27A1 (UniProt Q6PCB7) | inactive: 0.052 | inactive: 0.064 | inactive: -0.05 | inactive: 0.001 | inactive: 0.117 | inactive: -0.035 | inactive: -0.04 | inactive: -0.034 | – | inactive: 0.04 |
| SLC25A14 isoform 3 (UniProt O95258) | inactive: 0.048 | inactive: -0.098 | inactive: 0.088 | inactive: 0.019 | – | inactive: 0.043 | inactive: -0.058 | inactive: -0.022 | inactive: -0.026 | inactive: 0.011 |
| SLC12A5 (UniProt Q9H2X9) | inactive: -0.024 | inactive: -0.006 | inactive: -0.101 | – | inactive: 0.14 | inactive: 0.052 | – | inactive: -0.113 | – | inactive: 0.047 |
| SLC35F5 (UniProt Q8WV83) | inactive: 0.143 | inactive: -0.408 | – | – | inactive: -0.062 | – | – | inactive: -0.153 | inactive: 0.224 | – |
| SLC39A11 (UniProt Q8N1S5) | inactive: 0.092 | inactive: 0.066 | inactive: 0.051 | inactive: 0.012 | – | inactive: -0.117 | inactive: -0.051 | inactive: -0.085 | – | inactive: 0.07 |
| SLC22A18 (UniProt Q96BI1) | inactive: -0.001 | inactive: 0.005 | – | inactive: 0.051 | inactive: 0.077 | inactive: -0.077 | inactive: -0.017 | inactive: -0.021 | inactive: -0.034 | inactive: 0.103 |
| SLC27A4 (UniProt Q6P1M0) | inactive: -0.042 | inactive: 0.022 | inactive: -0.034 | inactive: 0.003 | inactive: 0.072 | inactive: -0.11 | inactive: -0.044 | inactive: 0.039 | – | inactive: 0.104 |

| Target | log2 fold change [1] | log2 fold change [2] | log2 fold change [3] | log2 fold change [4] | log2 fold change [5] | log2 fold change [6] | log2 fold change [7] | log2 fold change [8] | log2 fold change [9] | log2 fold change [10] |
| --- | --- | --- | --- | --- | --- | --- | --- | --- | --- | --- |
| SLC25A4 (UniProt P12235) | inactive: 0.032 | inactive: 0.068 | inactive: 0.016 | inactive: -0.007 | inactive: 0.009 | inactive: 0.089 | inactive: 0.004 | inactive: -0.02 | – | inactive: -0.013 |
| SLC38A7 (UniProt Q9NVC3) | inactive: 0.035 | inactive: 0.073 | inactive: 0.092 | inactive: 0.205 | inactive: -0.085 | active: -0.751 | inactive: -0.024 | inactive: 0.033 | – | inactive: 0.007 |
| SLC25A39 (UniProt Q9BZJ4) | inactive: 0.037 | inactive: 0.032 | inactive: 0.068 | inactive: -0.035 | inactive: -0.112 | active: -0.673 | inactive: 0.035 | inactive: 0.294 | – | inactive: -0.11 |
| SLC29A3 (UniProt Q9BZD2) | inactive: 0.01 | inactive: 0.064 | inactive: 0.04 | inactive: -0.025 | inactive: 0.088 | inactive: -0.283 | inactive: 0.011 | inactive: 0.02 | – | inactive: -0.148 |
| SLC25A36 (UniProt Q96CQ1) | inactive: 0.048 | inactive: 0.066 | inactive: 0.029 | inactive: 0.019 | inactive: -0.167 | inactive: -0.03 | inactive: 0.007 | inactive: 0.01 | – | inactive: 0.012 |
| SLC35B4 (UniProt Q969S0) | inactive: 0.092 | inactive: 0.023 | inactive: 0.184 | – | inactive: 0.098 | inactive: -0.02 | – | inactive: -0.056 | – | inactive: 0.059 |
| SLC6A9 (UniProt P48067) | inactive: 0.117 | inactive: -0.033 | inactive: -0.065 | inactive: -0.057 | – | inactive: 0.098 | inactive: 0.006 | inactive: 0.046 | inactive: 0.008 | inactive: 0.087 |
| SLC6A6 (UniProt P31641) | inactive: -0.025 | inactive: 0.036 | inactive: -0.045 | inactive: -0.186 | inactive: -0.033 | inactive: 0.107 | inactive: 0.101 | inactive: -0.071 | – | inactive: -0.181 |
| SLC50A1 (UniProt Q9BRV3) | inactive: 0.07 | inactive: -0.065 | inactive: 0.686 | inactive: -0.046 | – | inactive: 0.02 | inactive: 0.104 | inactive: 0.033 | – | – |
| SLC18B1 (UniProt Q6NT16) | inactive: 0.135 | inactive: 0.042 | inactive: 0.016 | inactive: -0.044 | inactive: -0.023 | active: -0.356 | inactive: -0.05 | inactive: 0.02 | – | inactive: -0.036 |
| SLC25A23 isoform 3 (UniProt Q9BV35) | inactive: -0.078 | inactive: -0.091 | inactive: -0.062 | inactive: -0.056 | – | inactive: -0.047 | inactive: -0.058 | inactive: -0.014 | inactive: -0.024 | inactive: -0.08 |
| SLC30A10 (UniProt Q6XR72) | inactive: 0.05 | inactive: -0.08 | inactive: -0.019 | inactive: -0.014 | inactive: -0.079 | inactive: 0.035 | inactive: -0.054 | inactive: -0.032 | – | inactive: 0.12 |
| SLC38A9 (UniProt Q8NBW4) | inactive: -0.028 | inactive: -0.005 | inactive: -0.019 | inactive: 0 | inactive: 0.089 | active: -0.368 | inactive: 0.049 | inactive: -0.023 | – | inactive: -0.1 |
| SLC31A1 (UniProt O15431) | inactive: 0.098 | inactive: 0.047 | inactive: -0.017 | inactive: -0.138 | inactive: -0.075 | inactive: 0.158 | inactive: 0.017 | inactive: -0.051 | – | inactive: 0.057 |
| SLC27A2 (UniProt O14975) | inactive: -0.039 | inactive: 0.144 | inactive: -0.125 | inactive: 0.013 | active: 0.366 | inactive: 0.015 | inactive: 0.055 | inactive: 0.01 | – | inactive: 0.03 |
| SLC19A1 (UniProt P41440) | inactive: 0.017 | inactive: -0.025 | inactive: -0.034 | inactive: 0.005 | inactive: -0.061 | inactive: 0.104 | inactive: 0.045 | inactive: 0.052 | – | inactive: 0.073 |

Just log2 fold change [2], log2 fold change [5] and log2 fold change [8] (3 entries from above):

| Target | log2 fold change [2] | log2 fold change [5] | log2 fold change [8] |
| --- | --- | --- | --- |
| SLC38A9 (UniProt Q8NBW4) | inactive: -0.005 | inactive: 0.089 | inactive: -0.023 |
| SLC31A1 (UniProt O15431) | inactive: 0.047 | inactive: -0.075 | inactive: -0.051 |
| SLC27A2 (UniProt O14975) | inactive: 0.144 | active: 0.366 | inactive: 0.01 |

Source: the supplement of paper PMC10849652
